# Where “and” joins values, the source holds several entries; their conditions need not be identical. Equal entries are not always repeated. The list shows a part of the results. The main result of the screen is listed elsewhere. These columns were measured beside it and carry no call. Most of these compounds were active or inconclusive in the main read-out, so they are no random draw. Potencies come from curve fits of mixed quality, noted in brackets.
# Test: qHTS Assay for Lipid Storage Modulators in Drosophila S3 Cells;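 for cell number change: cells counted by Cell Tracker Red CMTPX staining in the red channel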
# Conditions: BODIPY lipid droplet fluorescence, 18-24 h; for cell number change: measured here: cell count max response, cells fed with added oleic acid
# How it was run: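 Drosophila S3 cells loaded with oleic acid (400 uM, as added) and compounds at several concentrations; lipid droplets imaged by 488-nm laser-scanning cytometry, 500–530 nm intensity and object ratio to cell channel. Percent activity normalized to 20 uM Triacsin C.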
# [1] = measured here: lipid fluorescence (Fed channel) AC50, cells fed with added oleic acid
# [2] = measured here: cell number channel AC50, cells fed with added oleic acid
Compound,cell number change,AC50 [1],AC50 [2]
COc1ccc(Cl)cc1S(=O)(=O)N1CCN=C1C,-10.4%,"6.51 µM [falling, single point]",–
O=C(NC1CCSC1=O)c1ccc(Oc2ccc(F)cc2)nc1 (centres undefined),-30.8%,"0.103 µM [falling, full curve, poor fit]","0.366 µM [falling, partial curve]"
COc1ccc(Cl)cc1NC(=O)CNC(c1ccccc1)c1ccccc1,7.56%,"0.291 µM [rising, full curve, poor fit]",–
COc1cc2c(cc1NC(=O)CSc1nnnn1-c1ccccc1)oc1ccccc12,31.1%,–,"14.6 µM [rising, single point]"
COc1cc(C)ccc1OCCCCOc1ccccc1C(C)=O,24.9%,"0.103 µM [rising, full curve, poor fit]","0.103 µM [rising, full curve, poor fit]"
CC(OC(=O)CNC(=O)c1ccco1)C(=O)Nc1ccc(Cl)cn1 (centres undefined),45.4%,–,"23.1 µM [rising, single point]"
COc1ccc(-c2nc(NC(=O)c3c(C)noc3C)sc2C)cc1,-28.3%,"6.51 µM [falling, single point]",–
COc1ccc(C2c3ccc4ccccc4c3Oc3ncn(CCN4CCOCC4)c(=N)c32)cc1 (centres undefined),-6.59%,–,–
O=C(COC(=O)c1cc(Cl)ccc1O)NCC1CCCO1 (centres undefined),-7.38%,"9.2 µM [falling, partial curve, poor fit]",–
CCOc1nc(Nc2ccc(OC)cc2OC)nc(OCC)n1,-9.39%,"2.31 µM [rising, partial curve]",–
COc1ccc(/C(N)=N/OC(=O)CSc2ccc(C)cc2)cc1,74.2%,"2.31 µM [rising, full curve, poor fit]","16.4 µM [rising, single point]"
COc1ccc(-c2nnc(SCC(=O)/C(C#N)=C(\C)N)o2)cc1,6.08%,"0.651 µM [rising, full curve, poor fit]",–
CN1CCC(=O)N(CCOc2ccccc2)CC1,29.9%,–,"2.06 µM [rising, full curve, poor fit]"
Cc1cc(=O)n2nc(N3CCCC(C(=O)NCc4cccc(Cl)c4)C3)sc2n1 (centres undefined),-5.9%,"0.116 µM [rising, full curve, poor fit]",–
CCn1cc(C2=NOC(C(=O)Nc3c(C)nn(Cc4ccc(F)cc4)c3C)C2)c(C)n1 (centres undefined),–,"0.259 µM [rising, full curve, poor fit]","0.517 µM [rising, partial curve]"
CCc1ccccc1NC(=O)/C(=C/c1ccco1)c1ccccc1,–,–,"0.00411 µM [rising, full curve, poor fit]"
Cc1csc(CNc2ncnc3ccc(-c4ccoc4)cc23)c1,0.361% and 16.7%,–,"0.00517 µM [rising, full curve, poor fit]"
CCCC(O)(c1ccc(Cl)cc1)C(CN1CCOCC1)c1ccccc1 (centres undefined),-30%,"20.6 µM [falling, partial curve]","8.2 µM [falling, partial curve, poor fit]"
Cc1ccccc1NC(=O)CN1CCC(NC(=O)Nc2ccccc2)CC1,–,–,"0.366 µM [rising, full curve]"
O=S(=O)(c1ccccc1)N1N=C(c2ccc(O)cc2)CC1c1ccco1 (centres undefined),-32.1%,"10.3 µM [falling, partial curve]",–

Compound,cell number change,AC50 [1],AC50 [2]
Cc1cccc(NC(=O)C(=O)NCCCc2ccccc2)c1,-17.7%,–,–
COc1ccc(NC(=O)CSc2nnc(Cc3ccccc3)o2)c(OC)c1,3.56%,–,–
Cc1ccccc1OCC(=O)Nc1nc(-c2ccncc2)cs1,-27.1%,"0.461 µM [rising, full curve, poor fit]",–
NC(=O)c1ncc(C(F)(F)F)cc1Oc1cccnc1,32.8%,–,"2.06 µM [rising, partial curve]"
O=C(NCCO)C(=O)NCC(c1ccc2c(c1)OCO2)N1CCN(c2ccc(F)cc2)CC1 (centres undefined),21.1%,"3.66 µM [rising, single point]",–
Cc1cc2nc3c(c(=O)n2[nH]1)CCCC3,47.7%,"6.51 µM [falling, single point]","29.1 µM [rising, single point]"
O=C(N=Nc1c(O)[nH]c2ccc([N+](=O)[O-])cc12)c1ccccc1Cl,-54.7%,"25.9 µM [falling, single point]","29.1 µM [falling, single point]"
CC(C)(C)c1c(Cl)c(O)c(-c2ccccc2)c(=O)n1-c1ccccc1,9.86%,–,–
OCC[C@@H]1C[C@@H](O)[C@H](O)[C@]2(CCc3ccccc3CO2)O1,14.1%,"29.1 µM [rising, single point]",–
COCC(C)NC(=O)CSc1nc2ccccc2c(=O)n1CCc1ccc(S(N)(=O)=O)cc1 (centres undefined),-52.9%,"0.517 µM [falling, full curve]","29.1 µM [falling, single point]"
O=[N+]([O-])c1ccc(Cl)cc1N1CCOCC1,14%,"6.51 µM [falling, single point]",–
Cc1ccc(NC(=O)CCNC(=O)c2ccc(Br)cc2)cc1S(=O)(=O)N1CCOCC1,-99.5%,–,"23.1 µM [falling, single point]"
CCC(=O)Nc1ccc(S(=O)(=O)N2CCc3ccccc32)cc1,-35.4%,–,"29.1 µM [falling, single point]"
OCCN(CCO)c1ccc(C(c2ccc(Cl)cc2)c2ccc(N(CCO)CCO)cc2Cl)c(Cl)c1,-61.3%,–,"20.6 µM [falling, single point]"
O=C(N/N=C/c1cc(Br)cc(Br)c1O)c1ccncc1,31%,–,"29.1 µM [rising, single point]"
O=C(Cn1c(=O)cnc2ccccc21)Nc1cccc(S(=O)(=O)N2CCCCC2)c1,1.93%,"4.61 µM [falling, single point]",–
COc1cccc(-c2cc(C(=O)Nc3ccc4c(c3)OCO4)no2)c1,-1.28%,–,–
COc1ccc(OCC(=O)NCc2ccc(Cl)cc2)cc1,36.5%,"29.1 µM [rising, single point]","29.1 µM [rising, single point]"
COc1ccc(CC(=O)O/N=C(\N)Cc2cccc3ccccc23)cc1,10.5%,"1.84 µM [rising, partial curve]",–
CC(C)CC(C(=O)Nc1oc(-c2ccccc2)c(-c2ccccc2)c1C#N)N1C(=O)c2ccccc2C1=O (centres undefined),-32.7%,–,"23.1 µM [falling, single point]"

Compound,cell number change,AC50 [1],AC50 [2]
CN(C(=O)c1ccco1)c1nnc(-c2ccc(F)cc2)s1,0.901%,"6.51 µM [falling, single point]",–
COc1ccccc1/C=C/C(=O)OCCN1C(=O)c2ccccc2C1=O,-0.826%,"13 µM [falling, single point]",–
COc1ccc(N=C2SCC(c3ccc(C)cc3)=NN2CCO)cc1,42.3%,"29.1 µM [rising, single point]","18.4 µM [rising, single point]"
c1ccc(-c2ccc(-c3cn4c(n3)CCC4)cc2)cc1,–,–,"3.66 µM [rising, partial curve]"
CCS(=O)(=O)N1CCC(C(=O)NCc2ccco2)CC1,-4.9%,–,–
O=c1c2ccccc2nc2n1C(CBr)CS2 (centres undefined),-21.9%,"20 µM [falling, partial curve]",–
CCOc1ccc(C(=O)COC(=O)c2nc3nccc(C)n3n2)cc1,-21.8%,"16.4 µM [rising, single point]",–
CCSC1=C(C#N)C(CC(C)C)C2=C(CCCC2=O)N1 (centres undefined),12.5%,–,"6.51 µM [rising, single point]"
COc1ccc(NC(=O)c2c(C)cc(=O)oc2C)c(OC)c1,7.08%,"0.092 µM [falling, full curve, poor fit]",–
Fc1ccccc1CNC(=S)Nc1cccc(C(F)(F)F)c1,-40.4%,–,"16.4 µM [falling, single point]"
Cc1ccccc1C(=O)Nc1cccc(C(=O)N/N=C/c2ccc3c(c2)OCO3)c1,25.4%,–,"0.0517 µM [rising, full curve, poor fit]"
COc1ccc(N2C(=O)CCC(C(=O)N3CCOCC3)C2c2ccc(F)cc2)cc1 (centres undefined),-22.7%,"0.58 µM [falling, single point]","0.651 µM [falling, full curve]"
O=C(COC(=O)/C=C/c1cccc(Br)c1)NCCc1ccccc1,23.8%,–,–
O=[N+]([O-])/C=C/c1ccc2c(ccn2Cc2ccccc2)c1,-56.4%,"7.31 µM [falling, partial curve]","11.6 µM [falling, partial curve]"
CCc1ccc(C2=NN(c3ccc(S(N)(=O)=O)cc3)C(c3ccc(F)cc3)C2)cc1 (centres undefined),-24.7%,"3.66 µM [rising, single point]",–
O=C(c1cccs1)N1CCN(c2ccc(Cl)cc2)CC1,-6.08%,"18.4 µM [rising, single point]",–
O=C(Nc1ccc(N2CCCC2)c(Cl)c1)c1ccc([N+](=O)[O-])cc1,14.8%,"6.51 µM [rising, single point]",–
COc1ccccc1-n1c(SCC(=O)O)nc2c(sc(=S)n2-c2ccc(C)c(C)c2)c1=O,–,"1.16 µM [rising, full curve]","0.58 µM [rising, single point]"
C=CCC(c1ccccc1F)N(CCN1CCOCC1)C(=O)Nc1cccc(Cl)c1 (centres undefined),–,"6.51 µM [rising, single point]","6.51 µM [rising, single point]"
